{"source": "patent US5352602A", "about": "“Isoamylase and process for producing the same” (Amano Pharmaceutical Co., Ltd., priority 1992, dated 1994)", "system": "isoamylase of Xanthomonas maltophilia S-517", "assay": "Influence of inhibitors and metal salts on isoamylase activity", "format": "biochemical", "conditions": "inhibitor concentration 1 mM", "experimental": "Measurements of activity of the enzyme of the present invention were made as follows in accordance with the method of Maruo-Kobayashi (see NIHON NOGEI KAISHI, Vol. 23, pp. 115-120 (1949).\nA reaction system consisting of 2.0 ml of a 1.0% soluble starch (glutinous rice) solution, 0.4 ml of a 0.5M acetate buffer solution (pH=3.5), and 0.4 ml of an enzyme liquid was allowed to react at 40° C. for 30 minutes. To the reaction system was added 0.4 ml of a 0.01N iodine solution. After dilution with water to 10 ml, the absorbance at 610 nm was measured. The enzyme activity on an absorbance increase of 0.1 within 1 hour was taken as 10 units.", "note": "For at least one compound, name, drawing or mass did not settle the structure."}
{"smiles": "O=[N+]([O-])c1ccc(F)c([N+](=O)[O-])c1", "note": "[2,4-Dinitrofluorobenzene]", "values": [{"measurement": "Percent Inhibition", "value": 2.1, "unit": "%"}]}
